Measurements from PubChem BioAssay AID493014 (National Center for Advancing Translational Sciences (NCATS), 2011).
About 170 (0.05%) of roughly 340,000 compounds were called active. Inconclusive means that the source gave no clear call. Such entries were picked first, then a sample of the others. Calls follow the shape of the dose curve; as a rule, active = well fitted inhibition curve with a large enough effect in the signal ratio, with a control signal flat (not every such curve was filed as active); inconclusive = small, poorly fitted or top-dose-only effect, or effect the other way, or a change in a side signal; inactive = flat fitted curve, though single readings scatter; the % refers to the signal ratio. Potencies beside an inconclusive call are fits to weak or partial responses and may not hold up.

experiment: qHTS Assay to Find Inhibitors of Chronic Active B-Cell Receptor Signaling; conditions: ABC-DLBCL IkBa-CBG/CBR reporter, luminescence ratio (green luciferase fused to IkBa over red control in TMD8 lymphoma cells), 4 h; activity change, negative = inhibition: at 46.1 µM (top of the series);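 as to activity change, negative = inhibition: plate controls were basal doxycycline-induced cells for no effect and cells given 10 µM MG132 for full effect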
How it was run: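 Concentration-response series (up to 46 uM) were applied to TMD8 dual-reporter cells for 4 h at 37C with doxycycline. Green/red ratio, after filter-overlap correction, defined %Activity; red signal alone was normalised to basal cells and zero luminescence.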
Potency is read from the fitted curve at half-maximal effect.

SMILES | activity change, negative = inhibition | Potency
Cc1cccc(-c2cc3nc4c(c(N5CCCC(O)C5)n3n2)CCC4)c1 (configuration not stated) | inconclusive: 0.8% | 
Cc1sc(NC(=O)CSc2nnc(COc3ccc(Cl)cc3)n2C)c(C#N)c1C | inconclusive: 11.8% | 
CCOc1cnn(-c2cc(Oc3ccc(C)cc3)ncn2)c(=O)c1Cl | inactive | 
CC(=O)c1cccc(NC(=O)c2sc3nc4n(c(=O)c3c2C)CCCC4)c1 | inactive | 
COc1ccc(N/C=C(\[N+](=O)[O-])S(=O)(=O)c2ccccc2)cc1 | inconclusive: -0.425% | 
Cc1ccc(S(=O)(=O)N2CCCC2C(=O)NCCc2ccccc2)cc1 (configuration not stated) | inactive | 
[O-]/C(=C(\C(=S)Nc1cccc2ccccc12)[n+]1ccccc1)c1ccc(OC(F)F)cc1 |  | inconclusive: 11.2 µM [falling, partial curve]
COc1cc(OCC(=O)NC(C)C)cc2c1C(=O)O[C@@H](C)CCCC(=O)CCCCC2 | inconclusive: 0.279% | 
Cc1cccc(-c2nnc(-c3cccc(NC(=O)Cc4cccs4)c3)o2)c1 | inconclusive: 11.7% | 
CCn1cc(CN2CCc3c([nH]c4ccccc34)C2c2cccc(OC)c2OC)c(C)n1 (configuration not stated) |  | inconclusive: 5.01 µM [falling, single point]
O=C(CCNS(=O)(=O)c1ccccc1C(F)(F)F)NCCCN1CCOCC1 | inactive | 
CCN(c1ccccc1)S(=O)(=O)c1ccc(Cl)c(C(=O)NCC2CCCO2)c1 (configuration not stated) | inactive | 
Cc1cccc(-c2cc3c(N=O)c4ccccc4c-3n[nH]2)c1 | inconclusive: 5.43% | 
COc1ccc(/C=N\NC(=O)c2ccccc2Cl)cc1COc1c(F)c(F)c(F)c(F)c1F |  | inconclusive: 3.98 µM [falling, partial curve]
Cc1cccc(/C=C/c2nc3ccccc3c(=O)[nH]2)c1 | inconclusive: 8.08% | 
CCNc1ccc(S(=O)(=O)N(C)C)cc1NCC(=O)Nc1ccc(Br)cc1F | inconclusive: -9.28% | 
CC[C@@]12C(=O)N(c3cccc(F)c3)C(=O)N1[C@H](c1ccc(F)cc1)[C@@H]1C(=O)N(C3CCCCC3)C(=O)[C@@H]12 | inconclusive: -5.12% | 
O=C(COc1ccc(Cl)cc1Cl)NCc1ccco1 | inconclusive: 0.293% | 
COc1ccc(CCN2C(=O)CSC2=Nc2ccc(C(C)C)cc2)cc1OC |  | inconclusive: 25.1 µM [falling, single point]
COc1ccc(CNC(=S)N/N=C/c2ccc(OC)c(OC)c2)cc1 |  | inconclusive: 12.6 µM [falling, single point]
N#CCCCc1cc2ccccc2cn1 | inactive | 
CCC(C)[C@H](NC(=O)NCc1ccc(F)cc1)C(=O)O (some centres not stated) | inactive | 
CC(C)(C)OC(=O)N1CCN(C(=O)c2[nH]cnc2C(=O)N[C@@H](Cc2ccccc2)C(=O)OCc2ccccc2)CC1 |  | inconclusive: 35.5 µM [falling, single point]
CCn1c(CN2CCN(c3ccc(Cl)cc3)CC2)nc2ccccc21 | inactive | 
Cc1c(C(=O)N2CCC(C)CC2)sc2ncnc(N(C)c3ccccc3)c12 | inconclusive: -0.987% | 
COC(=O)c1ccc(NN=Nc2ccc(C)cc2)cc1 | inactive | 

Pulled one by one from the list above (4):
SMILES | activity change, negative = inhibition | Potency
COC(=O)c1ccc(NN=Nc2ccc(C)cc2)cc1 | inactive | 
CC[C@@]12C(=O)N(c3cccc(F)c3)C(=O)N1[C@H](c1ccc(F)cc1)[C@@H]1C(=O)N(C3CCCCC3)C(=O)[C@@H]12 | inconclusive: -5.12% | 
N#CCCCc1cc2ccccc2cn1 | inactive | 
Cc1cccc(-c2cc3nc4c(c(N5CCCC(O)C5)n3n2)CCC4)c1 (configuration not stated) | inconclusive: 0.8% | 

Next results.

SMILES | activity change, negative = inhibition | Potency
CSc1ccccc1N=Cc1nc(-c2ccccc2)oc1O |  | inconclusive: 25.1 µM [falling, single point]
Cc1cc(-c2nn(-c3ccccc3F)cc2CN(C)CC(O)CO)c(C)s1 (configuration not stated) | inconclusive: 1.6% | 
COc1ccc(NC(=O)CCC2CCCCC2)cc1S(=O)(=O)N1CCCCC1 | inactive | 
Cc1ccc(-n2ncc3c(NCC4CCCO4)ncnc32)c(C)c1 (configuration not stated) | inconclusive: 19.9% | 
NS(=O)(=O)c1ccc(Nc2nc(-c3ccc(F)cc3)cs2)cc1 | inactive | 
COc1ccc(-c2cc3cc(OC)c(OC)cc3c(C)n2)cc1 | inconclusive: -2.52% | 
COc1cc(-c2nnc(Sc3ccc(C(F)(F)F)cc3[N+](=O)[O-])o2)cc(OC)c1OC | inactive | 
CCc1ccc(Nc2n[n+](-c3ccccc3)c(-c3cc(OC)c(OC)cc3Br)s2)cc1 |  | inconclusive: 11.2 µM [falling, partial curve, poor fit]
COc1ccc2nc(N(Cc3ccccc3)C(=O)CCNC(C)=O)sc2c1 |  | inconclusive: 7.08 µM [falling, partial curve, poor fit]
O=C(CCCCl)Nc1c2c(nn1-c1ccccc1)CSC2 |  | inconclusive: 12.6 µM [falling, partial curve]
Cc1cccc2nc(-c3cccc(NC(=O)Cc4ccccc4)c3)cn12 | inactive | 
O=C(CN1C(=O)CS/C1=C\c1nc(-c2ccc(Cl)cc2)cs1)Nc1cccnc1Cl | inactive | 
COc1ccc(/C=N/NC(=O)c2ccn[nH]2)cc1CSc1ccccn1 |  | inconclusive: 15.8 µM [falling, partial curve]
COc1ccc([C@H]2CC(=O)C=C(c3cccc(OC)c3)C2)cc1 | inactive | 
O=C(NC1CCCCC1)C(c1ccncc1)N(Cc1ccccc1)C(=O)c1ccc(-c2ccccc2)[nH]1 (configuration not stated) | inconclusive: 20.5% | 
Fc1ccccc1/C=N/NC(=S)Nc1ccc(Cl)cc1Cl | inconclusive: 2.11% | 
O=C(c1cccc(F)c1)N1CCN(C(=O)c2cc3nc(-c4ccco4)cc(C(F)(F)F)n3n2)CC1 | inactive | 
Cn1nc(C(=O)Nc2cccc(C(=O)NC3CC3)c2)c2ccccc2c1=O | inactive | 
O=C(OCC1COc2ccccc2O1)c1ccccc1F (configuration not stated) | inconclusive: 4.92% | 
COCCNc1c(-c2ccc(OC)c(OC)c2)nc2ccc(Cl)cn12 | inconclusive: 0.868% | 
Cc1cc(=O)c2cc(Br)ccc2[nH]1 | inconclusive: 20.4% | 
Cc1cccc(N2CCN(C(=O)Cn3sc4nc(C)cc(C)c4c3=O)CC2C)c1 (configuration not stated) | inactive | 
O=C(NN=C1CCCC1)c1cc(Cl)cc(Cl)c1O | inconclusive: 393% | 
CC(=O)N1c2ccc(S(=O)(=O)N3CCCCC3)cc2CC1C (configuration not stated) | inconclusive: 8.07% | 
CCS(=O)(=O)N1CCN(c2ccccn2)CC1 | inconclusive: -2.34% | 
CC1=NN(C(N)=S)C(=O)C1N=Nc1cccc([N+](=O)[O-])c1 (configuration not stated) |  | inconclusive: 0.708 µM [falling, full curve, poor fit]
